Assay results as given in article PMC4944146.
Results are given in words; binding and its absence hold for the method and conditions named. For some of these results: Binding seen in cells or lysates may run through a third protein. Some entries that bind do so weakly or less than the wild type. For some of these results: Tags and fused reporters may be left off the sequences shown.

The chains behind the UniProt entries cited, without tags or fusion partners. Residues count along the entry.
UniProt Q9ZNZ7, residues 106-1622: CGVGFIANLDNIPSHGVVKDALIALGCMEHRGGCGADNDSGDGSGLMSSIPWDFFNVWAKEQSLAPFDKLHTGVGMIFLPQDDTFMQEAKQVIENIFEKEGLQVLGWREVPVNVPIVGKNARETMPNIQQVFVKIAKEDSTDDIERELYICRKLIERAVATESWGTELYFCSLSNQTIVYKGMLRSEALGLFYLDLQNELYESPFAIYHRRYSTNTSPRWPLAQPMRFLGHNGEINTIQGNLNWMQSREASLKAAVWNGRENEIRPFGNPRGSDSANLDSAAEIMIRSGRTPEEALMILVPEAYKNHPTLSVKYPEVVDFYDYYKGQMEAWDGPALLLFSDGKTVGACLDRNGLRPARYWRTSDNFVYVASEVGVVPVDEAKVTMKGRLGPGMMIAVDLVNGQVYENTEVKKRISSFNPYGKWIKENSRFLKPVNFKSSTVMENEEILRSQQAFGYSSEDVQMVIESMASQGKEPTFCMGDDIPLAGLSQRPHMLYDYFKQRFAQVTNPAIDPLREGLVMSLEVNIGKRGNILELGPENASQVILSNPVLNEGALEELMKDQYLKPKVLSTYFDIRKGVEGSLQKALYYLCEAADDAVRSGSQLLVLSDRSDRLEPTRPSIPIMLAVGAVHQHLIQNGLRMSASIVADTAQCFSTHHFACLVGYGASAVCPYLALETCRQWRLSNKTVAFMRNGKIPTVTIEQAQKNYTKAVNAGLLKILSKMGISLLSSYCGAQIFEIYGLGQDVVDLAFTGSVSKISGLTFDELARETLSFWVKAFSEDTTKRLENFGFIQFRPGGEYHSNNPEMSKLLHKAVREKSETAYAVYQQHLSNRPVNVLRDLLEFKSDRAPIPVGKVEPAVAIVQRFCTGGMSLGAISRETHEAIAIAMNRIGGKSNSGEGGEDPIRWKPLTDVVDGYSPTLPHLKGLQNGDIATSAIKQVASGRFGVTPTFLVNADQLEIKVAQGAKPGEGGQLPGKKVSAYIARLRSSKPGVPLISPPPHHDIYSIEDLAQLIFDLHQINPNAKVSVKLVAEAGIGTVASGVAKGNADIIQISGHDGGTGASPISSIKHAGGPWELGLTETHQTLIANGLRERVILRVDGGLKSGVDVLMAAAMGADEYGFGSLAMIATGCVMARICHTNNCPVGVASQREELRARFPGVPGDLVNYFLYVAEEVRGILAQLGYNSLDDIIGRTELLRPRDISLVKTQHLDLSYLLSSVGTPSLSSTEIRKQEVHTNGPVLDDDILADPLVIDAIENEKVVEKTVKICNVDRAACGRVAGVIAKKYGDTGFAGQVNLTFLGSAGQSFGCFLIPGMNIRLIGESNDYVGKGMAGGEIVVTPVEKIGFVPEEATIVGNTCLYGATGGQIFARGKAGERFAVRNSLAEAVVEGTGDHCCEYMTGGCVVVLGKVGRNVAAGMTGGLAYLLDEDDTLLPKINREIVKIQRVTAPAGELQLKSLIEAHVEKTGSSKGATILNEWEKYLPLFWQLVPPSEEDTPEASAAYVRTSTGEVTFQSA

Tests used:
[1] = target: T1, ACR11, ACT domain-containing family protein (Arabidopsis thaliana (endogenous in rosette leaves)) (UniProt Q9FZ47); experiment: native gel or EMSA; BN-PAGE coupled with LC-MS/MS of gel slices; Arabidopsis intact chloroplasts (1% β-dodecyl maltoside, 57 slices) and chloroplast stroma (20 μg, 56 slices); emPAI-based protein migration profiles compared
T1 sequence: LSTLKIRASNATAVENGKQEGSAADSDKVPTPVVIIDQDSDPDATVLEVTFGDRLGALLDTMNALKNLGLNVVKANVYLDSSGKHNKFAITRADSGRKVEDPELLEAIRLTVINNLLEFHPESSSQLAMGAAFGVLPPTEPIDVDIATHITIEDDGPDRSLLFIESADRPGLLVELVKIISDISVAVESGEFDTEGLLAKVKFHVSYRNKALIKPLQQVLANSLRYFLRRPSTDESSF

[2] = target: T2, ACR11-FLAG (ACR11 with a FLAG tag inserted between A75 and D76) (Arabidopsis thaliana) (UniProt Q9FZ47); experiment: co-IP; Soluble leaf proteins of wild-type and ACR11-FLAG plants incubated with anti-DYKDDDDK beads for 15 min at 25 °C; three washes with BN-solubilization buffer; eluted with DYKDDDDK peptide or SDS buffer; immunoblot
T2 sequence: T1 sequence

[3] = target: T1, ACR11, ACT domain-containing family protein (Arabidopsis thaliana (endogenous in rosette leaves)); experiment: native gel or EMSA; BN-PAGE (4–13% gradient gels, 4 °C) of soluble proteins from rosette leaves of wild-type, acr11, acr12 and ACR11-FLAG plants, followed by immunoblot with anti-Fd-GOGAT and anti-ACR11 antibodies
[4] = target: T2, ACR11-FLAG (ACR11 with a FLAG tag inserted between A75 and D76) (Arabidopsis thaliana); experiment: as above

Measured: binding

Glu1-encoded ferredoxin-dependent glutamate synthase (Fd-GOGAT) (from UniProt Q9ZNZ7 106-1622) (enzyme)
binds: [1] | [2] | [3] | [4]
